According to patent US20250176599A1, “FLAVOR COMPOSITION AND FOOD AND BEVERAGE” (TAKASAGO INTERNATIONAL CORPORATION, priority 2021, published 2025):

What was measured:
[1] = Sensory evaluation of aqueous solution V containing 1-octen-3-ol 10 ppb: off-flavor intensity and masking component intensity; settings: average score 0-4
Procedure: (§1) In ion-exchanged water, each degradation component was added to achieve the concentrations listed in Table 1, and aqueous solutions I to VI containing these degradation components were prepared.
(§2) For the aforementioned aqueous solutions containing degradation components, nootkatone was added at the concentrations listed in Table 2 to confirm the intensity of the off-flavor (masking effect) in each sample and the intensity of the masking component itself (the impact on the flavor of the food and/or beverage itself).
(§3) The test was conducted as follows. Eight experienced panelists were selected to conduct a sensory evaluation. The intensity of the off-flavor of the aqueous solution containing the degradation components derived from unsaturated fatty acids, without added masking components, was set as “Evaluation: 4.” The ion-exchanged water free of any degradation components was set as “Evaluation: 0.” The intensity of the off-flavor (masking effect) of each sample was then relatively evaluated according to the following evaluation criteria.
(§4) • Off-flavor is strongly sensed: 4 points • Off-flavor is sensed: 3 points • Off-flavor is slightly sensed: 2 points • Off-flavor is barely sensed: 1 point • Off-flavor is not sensed at all: 0 points
(§5) Also, the intensity of the masking components (impact on the flavor of the food and/or beverage itself) was absolutely evaluated according to the following evaluation criteria.
(§6) • Masking component is strongly sensed: 4 points • Masking component is sensed: 3 points • Masking component is slightly sensed: 2 points • Masking component is barely sensed: 1 point • Masking component is not sensed at all: 0 points

[2] = Sensory evaluation of aqueous solution I containing (E)-2-nonenal 1 ppb: off-flavor intensity and masking component intensity; settings: average score 0-4
Procedure: as §1, §2, §3, §4, §5, §6

[3] = Sensory evaluation of aqueous solution IV containing 1,5-octadien-3-one 100 ppt: off-flavor intensity and masking component intensity; settings: aqueous solution IV, 1,5-octadien-3-one 100 ppt, average score 0-4
Procedure: as §1, §2, §3, §4, §5, §6

[4] = Sensory evaluation of aqueous solution II containing (E)-2-octenal 10 ppb: off-flavor intensity and masking component intensity; settings: average score 0-4
Procedure: as §1, §2, §3, §4, §5, §6

SMILES | Masking Component Intensity ([1]; 0.1 ppt added) [points] | Masking Component Intensity ([1]; 1 ppb added) [points] | Masking Component Intensity ([1]; 1 ppt added) [points] | Masking Component Intensity ([1]; 10 ppb added) [points] | Masking Component Intensity ([1]; 10 ppt added) [points] | Masking Component Intensity ([1]; 100 ppb added) [points] | Masking Component Intensity ([1]; 100 ppt added) [points] | Masking Component Intensity ([2]; 0.1 ppt added) [points] | Masking Component Intensity ([2]; 1 ppb added) [points] | Masking Component Intensity ([2]; 1 ppt added) [points] | Masking Component Intensity ([2]; 10 ppb added) [points] | Masking Component Intensity ([2]; 10 ppt added) [points] | Masking Component Intensity ([2]; 100 ppb added) [points] | Masking Component Intensity ([2]; 100 ppt added) [points] | Masking Component Intensity ([3]; 0.1 ppt added) [points] | Masking Component Intensity ([3]; 1 ppb added) [points] | Masking Component Intensity ([3]; 1 ppt added) [points] | Masking Component Intensity ([3]; 10 ppb added) [points] | Masking Component Intensity ([3]; 10 ppt added) [points] | Masking Component Intensity ([3]; 100 ppb added) [points] | other results
CC(=O)/C=C/C1C(C)=CCCC1(C)C (stereo not drawn) [α-Ionone, α-ionone] | 0.1 | 1.3 | 0.3 | 2.1 | 0.8 | 2.8 | 1.0 | 0.3 | 1.8 | 0.6 | 2.3 | 0.8 | 3.0 | 1.1 | 0.0 | 1.0 | 0.3 | 1.8 | 0.6 | 2.5 | Masking Component Intensity ([1]; 1 ppm added): 3.4 points; Masking Component Intensity ([1]; 10 ppm added): 4.0 points; Masking Component Intensity ([2]; 1 ppm added): 3.6 points; Masking Component Intensity ([2]; 10 ppm added): 4.0 points; Masking Component Intensity ([3]; 1 ppm added): 3.5 points; Masking Component Intensity ([3]; 10 ppm added): 4.0 points; Masking Component Intensity ([3]; 100 ppt added): 0.8 points; Masking Component Intensity ([4]; 0.1 ppt added): 0.1 points; Masking Component Intensity ([4]; 1 ppb added): 1.5 points; Masking Component Intensity ([4]; 1 ppm added): 3.5 points; Masking Component Intensity ([4]; 1 ppt added): 0.3 points; Masking Component Intensity ([4]; 10 ppb added): 2.3 points; Masking Component Intensity ([4]; 10 ppm added): 4.0 points; Masking Component Intensity ([4]; 10 ppt added): 0.8 points; Masking Component Intensity ([4]; 100 ppb added): 2.9 points; Masking Component Intensity ([4]; 100 ppt added): 1.1 points
CCC(=O)/C=C/C1C(C)=CCCC1(C)C (stereo not drawn) [α-Methyl Ionone, α-methyl ionone] | 0.3 | 1.8 | 0.8 | 2.8 | 0.9 | 3.4 | 1.5 | 0.3 | 2.1 | 0.8 | 2.9 | 1.1 | 3.5 | 1.5 | 0.5 | 1.5 | 0.8 | 2.4 | 0.9 | 3.0 | Masking Component Intensity ([1]; 0.01 ppt added): 0.1 points; Masking Component Intensity ([1]; 1 ppm added): 4.0 points; Masking Component Intensity ([2]; 0.01 ppt added): 0.1 points; Masking Component Intensity ([2]; 1 ppm added): 4.0 points; Masking Component Intensity ([3]; 0.01 ppt added): 0.4 points; Masking Component Intensity ([3]; 1 ppm added): 4.0 points; Masking Component Intensity ([3]; 100 ppt added): 1.3 points; Masking Component Intensity ([4]; 0.01 ppt added): 0.4 points; Masking Component Intensity ([4]; 0.1 ppt added): 0.6 points; Masking Component Intensity ([4]; 1 ppb added): 1.8 points; Masking Component Intensity ([4]; 1 ppm added): 4.0 points; Masking Component Intensity ([4]; 1 ppt added): 0.9 points; Masking Component Intensity ([4]; 10 ppb added): 2.8 points; Masking Component Intensity ([4]; 10 ppt added): 1.4 points; Masking Component Intensity ([4]; 100 ppb added): 3.4 points; Masking Component Intensity ([4]; 100 ppt added): 1.6 points
C/C=C/C(=O)C1=C(C)C=CCC1(C)C [β-Damascenone, β-damascenone] | 1.1 | 3.1 | 1.6 | 3.6 | 1.6 | 3.8 | 2.4 | 1.0 | 2.6 | 1.4 | 3.0 | 1.6 | 3.6 | 2.0 | 0.8 | 2.0 | 1.1 | 3.0 | 1.4 | 3.1 | Masking Component Intensity ([1]; 0.001 ppt added): 0.6 points; Masking Component Intensity ([1]; 0.01 ppt added): 1.0 points; Masking Component Intensity ([2]; 0.001 ppt added): 0.1 points; Masking Component Intensity ([2]; 0.01 ppt added): 0.8 points; Masking Component Intensity ([3]; 0.001 ppt added): 0.3 points; Masking Component Intensity ([3]; 0.01 ppt added): 0.4 points; Masking Component Intensity ([3]; 100 ppt added): 1.8 points; Masking Component Intensity ([4]; 0.001 ppt added): 0.8 points; Masking Component Intensity ([4]; 0.01 ppt added): 0.9 points; Masking Component Intensity ([4]; 0.1 ppt added): 1.1 points; Masking Component Intensity ([4]; 1 ppb added): 3.0 points; Masking Component Intensity ([4]; 1 ppt added): 1.3 points; Masking Component Intensity ([4]; 10 ppb added): 3.4 points; Masking Component Intensity ([4]; 10 ppt added): 1.8 points; Masking Component Intensity ([4]; 100 ppb added): 3.8 points; Masking Component Intensity ([4]; 100 ppt added): 2.4 points
CC(=O)/C=C/C1=C(C)CCCC1(C)C [β-Ionone, β-ionone] | 0.4 | 2.0 | 0.6 | 2.5 | 0.6 | 3.3 | 1.3 | 0.5 | 1.9 | 0.5 | 2.4 | 0.8 | 3.3 | 1.3 | 0.3 | 1.8 | 0.4 | 2.1 | 0.5 | 2.8 | Masking Component Intensity ([1]; 0.01 ppt added): 0.1 points; Masking Component Intensity ([1]; 1 ppm added): 3.9 points; Masking Component Intensity ([2]; 0.01 ppt added): 0.4 points; Masking Component Intensity ([2]; 1 ppm added): 3.9 points; Masking Component Intensity ([3]; 0.01 ppt added): 0.1 points; Masking Component Intensity ([3]; 1 ppm added): 3.8 points; Masking Component Intensity ([3]; 100 ppt added): 1.0 points; Masking Component Intensity ([4]; 0.01 ppt added): 0.3 points; Masking Component Intensity ([4]; 0.1 ppt added): 0.5 points; Masking Component Intensity ([4]; 1 ppb added): 2.1 points; Masking Component Intensity ([4]; 1 ppm added): 3.9 points; Masking Component Intensity ([4]; 1 ppt added): 0.9 points; Masking Component Intensity ([4]; 10 ppb added): 2.6 points; Masking Component Intensity ([4]; 10 ppt added): 1.1 points; Masking Component Intensity ([4]; 100 ppb added): 3.4 points; Masking Component Intensity ([4]; 100 ppt added): 1.4 points
